Source: the M2OR odorant receptor database
Residue numbers refer to the chain shown, from its start. This is a selection; strong and weak results do not stand in their true shares. The calls were merged from several studies; some rest on single wells. The list shows a part of the results. The list shows a part of the results.

Key:
Details in all cases: stereoisomer not certain
[1] = system: T1, OR2T1
T1 sequence (whole entry): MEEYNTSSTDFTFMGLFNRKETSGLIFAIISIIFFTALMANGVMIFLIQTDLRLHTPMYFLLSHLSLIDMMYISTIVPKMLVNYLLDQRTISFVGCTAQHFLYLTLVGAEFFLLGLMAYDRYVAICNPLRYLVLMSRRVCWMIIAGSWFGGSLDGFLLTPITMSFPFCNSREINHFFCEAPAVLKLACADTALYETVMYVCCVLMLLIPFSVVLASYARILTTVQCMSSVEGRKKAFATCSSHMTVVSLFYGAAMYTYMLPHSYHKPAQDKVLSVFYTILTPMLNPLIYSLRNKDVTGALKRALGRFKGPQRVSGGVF
Summary of the method: (§1)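 Transient luciferase assays in mammalian cell lines were common, though methods varied by source. The values come from published papers and their supplementary material, with extra details from the original authors when needed. Responsive refers to a measured signal the original authors judged statistically different from baseline, and non-responsive (inactive) to the remainder.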

[2] = system: T2, OR2T2
T2 sequence (whole entry): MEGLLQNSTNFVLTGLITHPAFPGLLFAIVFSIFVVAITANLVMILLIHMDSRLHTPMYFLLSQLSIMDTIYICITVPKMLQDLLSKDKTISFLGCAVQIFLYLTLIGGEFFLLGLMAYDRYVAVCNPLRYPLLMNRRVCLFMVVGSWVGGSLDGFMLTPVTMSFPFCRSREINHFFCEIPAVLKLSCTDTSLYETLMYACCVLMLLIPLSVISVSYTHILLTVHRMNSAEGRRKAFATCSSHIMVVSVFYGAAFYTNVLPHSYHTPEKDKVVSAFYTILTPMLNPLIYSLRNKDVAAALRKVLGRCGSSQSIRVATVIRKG
Summary of the method: as §1

[3] = target: T3, OR2T3 (Homo sapiens) (UniProt Q8NH03)
T3 sequence (whole entry): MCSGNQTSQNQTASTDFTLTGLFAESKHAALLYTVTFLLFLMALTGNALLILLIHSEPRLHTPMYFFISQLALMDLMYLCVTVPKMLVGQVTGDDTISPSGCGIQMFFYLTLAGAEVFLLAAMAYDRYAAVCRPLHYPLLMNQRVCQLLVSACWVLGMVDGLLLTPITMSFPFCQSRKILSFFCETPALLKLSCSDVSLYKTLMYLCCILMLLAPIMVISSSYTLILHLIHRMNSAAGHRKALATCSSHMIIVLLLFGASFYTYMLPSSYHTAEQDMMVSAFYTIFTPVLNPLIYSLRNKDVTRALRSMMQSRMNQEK
Summary of the method: as §1

[4] = system: T4, OR2T4
T4 sequence (whole entry): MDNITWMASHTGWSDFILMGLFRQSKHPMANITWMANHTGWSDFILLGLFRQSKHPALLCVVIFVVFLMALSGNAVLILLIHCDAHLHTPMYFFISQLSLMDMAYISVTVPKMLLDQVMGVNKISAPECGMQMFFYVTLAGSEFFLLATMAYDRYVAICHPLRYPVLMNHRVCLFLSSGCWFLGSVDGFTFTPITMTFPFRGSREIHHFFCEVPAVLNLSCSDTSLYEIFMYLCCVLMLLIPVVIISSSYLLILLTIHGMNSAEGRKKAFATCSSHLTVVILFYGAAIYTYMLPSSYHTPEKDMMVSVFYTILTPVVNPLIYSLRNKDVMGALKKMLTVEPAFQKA
Summary of the method: as §1

[5] = system: T5, OR2T5
T5 sequence (whole entry): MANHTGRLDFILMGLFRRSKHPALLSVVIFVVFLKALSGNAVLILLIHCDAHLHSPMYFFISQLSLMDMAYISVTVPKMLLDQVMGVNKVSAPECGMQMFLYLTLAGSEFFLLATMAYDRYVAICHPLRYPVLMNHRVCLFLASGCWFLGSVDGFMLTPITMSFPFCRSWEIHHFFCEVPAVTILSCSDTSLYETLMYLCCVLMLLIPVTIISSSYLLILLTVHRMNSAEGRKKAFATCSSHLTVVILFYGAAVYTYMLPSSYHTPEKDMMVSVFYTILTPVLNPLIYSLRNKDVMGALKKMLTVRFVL
Summary of the method: as §1

[6] = system: T6, OR2T6
T6 sequence (whole entry): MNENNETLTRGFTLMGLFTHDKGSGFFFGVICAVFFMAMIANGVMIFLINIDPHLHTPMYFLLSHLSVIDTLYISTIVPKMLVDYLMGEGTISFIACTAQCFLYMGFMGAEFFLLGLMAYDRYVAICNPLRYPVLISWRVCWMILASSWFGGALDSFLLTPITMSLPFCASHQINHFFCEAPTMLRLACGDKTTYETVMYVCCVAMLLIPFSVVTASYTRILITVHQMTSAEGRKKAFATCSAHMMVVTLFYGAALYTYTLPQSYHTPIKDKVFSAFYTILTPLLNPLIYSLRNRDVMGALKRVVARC
Summary of the method: as §1

[7] = system: T7, OR2T8
T7 sequence (whole entry): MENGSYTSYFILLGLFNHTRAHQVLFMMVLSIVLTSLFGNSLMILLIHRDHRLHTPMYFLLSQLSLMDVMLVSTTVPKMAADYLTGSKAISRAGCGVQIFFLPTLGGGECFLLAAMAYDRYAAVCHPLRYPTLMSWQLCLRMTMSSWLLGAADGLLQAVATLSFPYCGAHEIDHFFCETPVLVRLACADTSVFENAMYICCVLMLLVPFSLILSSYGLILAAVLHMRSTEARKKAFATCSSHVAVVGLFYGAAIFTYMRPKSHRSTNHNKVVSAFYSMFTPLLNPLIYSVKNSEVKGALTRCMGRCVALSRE
Summary of the method: as §1

[8] = system: T8, OR2V1
T8 sequence (whole entry): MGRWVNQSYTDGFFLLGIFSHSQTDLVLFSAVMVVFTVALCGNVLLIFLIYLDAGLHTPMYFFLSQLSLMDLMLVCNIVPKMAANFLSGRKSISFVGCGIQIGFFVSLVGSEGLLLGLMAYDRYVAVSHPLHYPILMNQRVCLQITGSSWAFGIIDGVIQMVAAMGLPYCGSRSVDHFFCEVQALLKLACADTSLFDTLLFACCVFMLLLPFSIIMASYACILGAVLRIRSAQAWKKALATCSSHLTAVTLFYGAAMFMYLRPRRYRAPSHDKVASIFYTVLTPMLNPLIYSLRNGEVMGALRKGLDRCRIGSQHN
Summary of the method: as §1

[9] = system: T9, OR2V2
T9 sequence (whole entry): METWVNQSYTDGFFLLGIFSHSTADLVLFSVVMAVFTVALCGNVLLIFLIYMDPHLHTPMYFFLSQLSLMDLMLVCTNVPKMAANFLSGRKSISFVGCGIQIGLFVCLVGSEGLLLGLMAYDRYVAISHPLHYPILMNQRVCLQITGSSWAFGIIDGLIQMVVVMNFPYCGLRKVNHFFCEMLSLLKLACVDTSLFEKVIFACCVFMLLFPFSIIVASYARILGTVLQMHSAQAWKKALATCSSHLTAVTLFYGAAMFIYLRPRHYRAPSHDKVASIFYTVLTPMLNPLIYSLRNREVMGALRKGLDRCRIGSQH
Summary of the method: as §1

[10] = target: T10, OR2W1 (Homo sapiens) (UniProt Q9Y3N9)
T10 sequence (whole entry): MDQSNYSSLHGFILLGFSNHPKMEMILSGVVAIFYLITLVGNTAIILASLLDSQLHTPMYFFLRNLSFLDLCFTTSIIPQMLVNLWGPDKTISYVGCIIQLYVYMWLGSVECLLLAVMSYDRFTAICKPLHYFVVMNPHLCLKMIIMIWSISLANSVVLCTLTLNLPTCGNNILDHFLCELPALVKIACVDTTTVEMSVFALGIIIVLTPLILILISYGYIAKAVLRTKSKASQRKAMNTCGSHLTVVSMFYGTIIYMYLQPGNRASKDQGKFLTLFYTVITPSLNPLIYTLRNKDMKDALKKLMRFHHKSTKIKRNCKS
Summary of the method: as §1

[11] = target: T11, OR2T4 (Homo sapiens) (UniProt Q8NH00)
T11 sequence (whole entry): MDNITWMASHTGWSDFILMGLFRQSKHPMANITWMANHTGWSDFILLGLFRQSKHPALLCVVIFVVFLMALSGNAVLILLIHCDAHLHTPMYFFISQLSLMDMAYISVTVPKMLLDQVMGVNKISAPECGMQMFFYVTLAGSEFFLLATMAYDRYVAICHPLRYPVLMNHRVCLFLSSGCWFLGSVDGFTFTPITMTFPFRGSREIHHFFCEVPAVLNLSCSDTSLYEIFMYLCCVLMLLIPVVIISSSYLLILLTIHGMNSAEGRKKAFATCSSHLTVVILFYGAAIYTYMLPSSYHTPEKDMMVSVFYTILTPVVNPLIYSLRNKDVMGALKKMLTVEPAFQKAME
Summary of the method: as §1

[12] = target: T12, OR2T34 (Homo sapiens) (UniProt Q8NGX1)
T12 sequence (whole entry): T3 sequence (whole entry) with Y109H, T202M, M204T, A214T, H239R, P267R
Summary of the method: as §1
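Also: active if original authors judged signal statistically different from baseline.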

Compound | odorant receptor agonist call [1] | odorant receptor agonist call [2] | odorant receptor agonist call [3] | odorant receptor agonist call [4] | odorant receptor agonist call [5] | odorant receptor agonist call [6] | odorant receptor agonist call [7] | odorant receptor agonist call [8] | odorant receptor agonist call [9] | odorant receptor agonist call [10] | odorant receptor agonist call [11] | odorant receptor agonist call [12]
CC1COCc2cc3c(cc21)C(C)(C)C(C)C3(C)C (stereo not drawn) | active | inactive | active | active | active | active | active | inactive | active | inactive |  | 
CC=Cc1ccc(O)c(OC)c1 | active | active | inactive | inactive | inactive | inactive | active | active | active | active |  | 
CC(C)CC(=O)O | inactive | inactive | inactive | inactive | inactive | inactive | inactive | inactive | inactive | inactive | inactive | 
COC(=O)c1ccccc1O | inactive | inactive | inactive | inactive | inactive | inactive | inactive | inactive | inactive | inactive |  | 
CC12CCC(CC1)C(C)(C)O2 | inactive | inactive | inactive | inactive | inactive | inactive | inactive | inactive | inactive | active |  | 
C=CCc1ccc(O)c(OC)c1 |  |  |  |  |  |  |  |  |  | inactive | inactive | 
O=C1CCCCCCCCCCCC(=O)OCCO1 | inactive | inactive | inactive | inactive | inactive | inactive | inactive | active | inactive | inactive |  | 
C=C(C)C1CC=C(C)C(=O)C1 (stereo not drawn) |  |  |  |  |  |  |  |  |  | active | inactive | 
CCCCCC(C)=O | inactive |  | inactive | active | inactive | inactive |  |  | inactive | active |  | inactive
O=C1CCCCC1 | inactive |  | inactive | inactive | inactive | inactive |  |  | inactive | inactive |  | 
CC(C)(C)c1ccc(CCC=O)cc1 | inactive | inactive | inactive | inactive | inactive | inactive | inactive | inactive | inactive | inactive |  | 
CC(=O)OCC=C(C)CCC=C(C)C | inactive | inactive | inactive | inactive | inactive | inactive | active | inactive | inactive | active |  | 
CC(C)C(=O)O | inactive | inactive | inactive | inactive | inactive | inactive | inactive | inactive | inactive | inactive |  | 
COc1ccccc1O | inactive | inactive | inactive | inactive | inactive | inactive | inactive | inactive | inactive | inactive |  | 
CCCCCCCCC=O |  |  |  |  |  |  |  |  |  | active | inactive | 
O=CCc1ccccc1 | inactive | active | inactive | inactive | inactive | inactive | active | active | inactive | inactive |  | 

Compound | odorant receptor agonist call [1] | odorant receptor agonist call [2] | odorant receptor agonist call [3] | odorant receptor agonist call [4] | odorant receptor agonist call [5] | odorant receptor agonist call [6] | odorant receptor agonist call [7] | odorant receptor agonist call [8] | odorant receptor agonist call [9] | odorant receptor agonist call [10] | odorant receptor agonist call [11] | odorant receptor agonist call [12]
CC(C)(O)CCCC1=CCC(C=O)CC1 (stereo not drawn) |  | inactive |  |  |  |  | inactive | inactive |  | inactive | inactive | 
CCCCCOC(C)=O | inactive | inactive | inactive | inactive | inactive | inactive | inactive | inactive | inactive | inactive |  | 
CCCCCCC=O |  |  |  |  |  |  |  |  |  | active |  | 
c1ccc(Oc2ccccc2)cc1 | inactive | inactive | inactive | inactive | inactive | inactive | inactive | inactive | inactive | inactive |  | 
CC(=O)c1ccccc1 | inactive |  | inactive | active | inactive | inactive |  |  | inactive | active |  | 
c1cnccn1 | inactive | inactive | inactive | inactive | inactive | inactive | inactive | inactive | inactive | active |  | 
CC1=CCC(C(C)(C)O)CC1 (stereo not drawn) | inactive | inactive | inactive | inactive | inactive | inactive | inactive | inactive | inactive | active |  | 
CCC1(O)C2(C)CCC(C2)C1(C)C (stereo not drawn) | inactive | inactive | active | inactive | inactive | inactive | inactive | inactive | inactive | active |  | 
COC(=O)c1ccccc1 | inactive |  | inactive | inactive | inactive | inactive |  |  | inactive | active |  | 
CC12C=CCC1C1CCC3=CC(=O)CCC3(C)C1CC2 (stereo not drawn) | inactive | inactive | inactive | inactive | inactive | inactive | inactive | inactive | inactive | inactive |  | 
CCCCCCCCCC=O | inactive | inactive | inactive | inactive | inactive | inactive | inactive | inactive | inactive | inactive |  | 
C=C(C)C1CCC2=CC(=O)CC(C)C2(C)C1 (stereo not drawn) |  | active |  |  |  |  | inactive | inactive |  | inactive |  | 
CCC=CCCO | inactive | inactive | inactive | inactive | inactive | inactive | inactive | inactive | inactive | inactive |  | 
CC1=NC(C)SC1C (stereo not drawn) | inactive |  | inactive | inactive | inactive | inactive |  |  | inactive | inactive |  | 
CC(C)C=O | inactive | inactive | inactive | inactive | inactive | inactive | inactive | inactive | inactive | inactive |  | 

A stretch taken from the entries so far, as a working copy:
Compound | odorant receptor agonist call [1] | odorant receptor agonist call [2] | odorant receptor agonist call [3] | odorant receptor agonist call [4] | odorant receptor agonist call [5] | odorant receptor agonist call [6] | odorant receptor agonist call [7] | odorant receptor agonist call [8] | odorant receptor agonist call [9] | odorant receptor agonist call [10] | odorant receptor agonist call [11] | odorant receptor agonist call [12]
CC1=CCC(C(C)(C)O)CC1 (stereo not drawn) | inactive | inactive | inactive | inactive | inactive | inactive | inactive | inactive | inactive | active |  | 
CCC1(O)C2(C)CCC(C2)C1(C)C (stereo not drawn) | inactive | inactive | active | inactive | inactive | inactive | inactive | inactive | inactive | active |  | 
